The target in assay [1] is T1, Phospholipase C delta 1 (PLCD1), endogenous (human (endogenous in H1703, H358, 293T)) (UniProt P51178).
T1 sequence: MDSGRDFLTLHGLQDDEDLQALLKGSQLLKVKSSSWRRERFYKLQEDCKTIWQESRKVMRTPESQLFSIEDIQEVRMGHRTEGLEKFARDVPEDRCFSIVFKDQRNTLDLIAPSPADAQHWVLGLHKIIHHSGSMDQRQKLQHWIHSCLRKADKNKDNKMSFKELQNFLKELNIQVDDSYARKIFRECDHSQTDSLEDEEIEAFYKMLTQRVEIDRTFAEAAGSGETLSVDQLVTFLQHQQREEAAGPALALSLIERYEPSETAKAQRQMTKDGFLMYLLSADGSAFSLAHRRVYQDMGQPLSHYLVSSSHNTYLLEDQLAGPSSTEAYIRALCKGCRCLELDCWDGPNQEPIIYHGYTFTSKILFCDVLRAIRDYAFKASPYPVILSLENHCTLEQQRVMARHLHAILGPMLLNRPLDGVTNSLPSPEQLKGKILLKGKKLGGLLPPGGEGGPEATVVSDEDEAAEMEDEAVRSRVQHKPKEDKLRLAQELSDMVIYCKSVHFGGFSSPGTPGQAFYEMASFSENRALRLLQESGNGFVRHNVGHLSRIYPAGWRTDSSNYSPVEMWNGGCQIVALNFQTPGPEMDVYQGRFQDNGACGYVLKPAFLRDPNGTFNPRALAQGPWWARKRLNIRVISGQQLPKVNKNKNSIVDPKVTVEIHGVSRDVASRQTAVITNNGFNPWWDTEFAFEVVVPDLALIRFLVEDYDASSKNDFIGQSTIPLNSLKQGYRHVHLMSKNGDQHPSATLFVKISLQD
Description: co-IP; IP of endogenous PLCD1 or Caveolin-1 from lysates of 293T cells overexpressing GFP-DLC1 wild type or mutants (full length); with or without 100 μM PS added to the binding reaction (Fig. 3B, 3C bottom, 5E, 6B, 6C).

By UniProt entry, the sequences of proteins in these tests, tags left out. Where a name states a change or a piece, a line headed by the entry shows the natural chain unless it says otherwise.
UniProt Q03135: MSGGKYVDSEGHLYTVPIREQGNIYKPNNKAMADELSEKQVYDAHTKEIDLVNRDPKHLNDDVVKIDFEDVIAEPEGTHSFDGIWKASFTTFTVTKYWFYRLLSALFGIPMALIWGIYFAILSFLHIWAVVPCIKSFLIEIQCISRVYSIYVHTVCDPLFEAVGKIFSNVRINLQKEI
UniProt Q96QB1: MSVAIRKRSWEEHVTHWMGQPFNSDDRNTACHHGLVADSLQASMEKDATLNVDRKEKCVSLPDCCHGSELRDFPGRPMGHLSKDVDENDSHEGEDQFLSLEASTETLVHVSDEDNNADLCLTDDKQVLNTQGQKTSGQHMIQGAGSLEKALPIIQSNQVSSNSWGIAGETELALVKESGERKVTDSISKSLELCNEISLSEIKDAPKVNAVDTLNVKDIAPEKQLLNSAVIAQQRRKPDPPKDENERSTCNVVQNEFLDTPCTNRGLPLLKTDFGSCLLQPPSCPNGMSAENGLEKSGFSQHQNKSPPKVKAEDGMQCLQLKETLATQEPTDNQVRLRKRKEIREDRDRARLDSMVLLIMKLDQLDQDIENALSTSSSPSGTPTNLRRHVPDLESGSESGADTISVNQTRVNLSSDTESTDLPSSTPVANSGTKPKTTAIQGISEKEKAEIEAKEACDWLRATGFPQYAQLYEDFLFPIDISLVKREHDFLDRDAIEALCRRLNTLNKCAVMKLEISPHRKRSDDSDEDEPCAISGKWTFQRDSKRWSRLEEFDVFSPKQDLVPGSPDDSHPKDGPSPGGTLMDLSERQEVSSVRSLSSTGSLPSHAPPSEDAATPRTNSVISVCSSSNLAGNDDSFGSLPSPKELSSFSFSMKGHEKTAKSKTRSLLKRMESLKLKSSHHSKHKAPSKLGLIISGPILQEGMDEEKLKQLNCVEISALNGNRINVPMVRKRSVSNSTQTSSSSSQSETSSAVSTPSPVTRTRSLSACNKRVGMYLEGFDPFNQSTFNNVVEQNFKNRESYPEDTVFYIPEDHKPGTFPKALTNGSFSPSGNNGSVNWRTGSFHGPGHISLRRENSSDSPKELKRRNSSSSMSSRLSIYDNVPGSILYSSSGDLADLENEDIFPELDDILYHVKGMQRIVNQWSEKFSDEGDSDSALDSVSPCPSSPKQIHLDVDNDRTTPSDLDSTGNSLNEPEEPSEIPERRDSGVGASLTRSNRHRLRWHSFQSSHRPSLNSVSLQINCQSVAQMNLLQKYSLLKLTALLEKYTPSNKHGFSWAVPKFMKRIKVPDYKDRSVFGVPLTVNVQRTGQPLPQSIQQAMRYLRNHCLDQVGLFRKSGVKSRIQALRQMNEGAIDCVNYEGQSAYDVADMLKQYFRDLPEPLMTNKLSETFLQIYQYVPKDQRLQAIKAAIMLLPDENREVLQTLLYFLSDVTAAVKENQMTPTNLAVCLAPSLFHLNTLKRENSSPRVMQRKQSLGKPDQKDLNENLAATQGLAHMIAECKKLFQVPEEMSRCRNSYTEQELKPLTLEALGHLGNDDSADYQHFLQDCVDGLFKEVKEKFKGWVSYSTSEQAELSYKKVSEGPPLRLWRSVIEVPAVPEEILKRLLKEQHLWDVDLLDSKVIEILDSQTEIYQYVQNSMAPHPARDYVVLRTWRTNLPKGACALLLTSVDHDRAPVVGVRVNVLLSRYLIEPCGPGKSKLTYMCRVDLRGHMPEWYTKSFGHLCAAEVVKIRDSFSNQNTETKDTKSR

Assay [2] concerns the target T1, Phospholipase C delta 1 (PLCD1), endogenous (human (endogenous in H1703, H358, 293T)). Description: co-IP; Caveolin-1 or PLCD1 IP from cells overexpressing GFP DLC1 START 848–1091 wild type or mutant; 293T with GFP control (Fig. 4B); with Lactadherin-C2 3A mutant (Supplementary Fig. 4A); with or without 100 μM PS (Supplementary Figure 6C, cells not told).
For assay [3] the target is unchanged. Briefly: co-IP; competition: PLCD1 IP (Fig. 2B) or Caveolin-1 IP (Fig. 2C) from H1703 cells transfected with GST control or GST Caveolin-1 (2B) or GST PLCD1 (2C); endogenous DLC1 blotted.
Assay [4] addresses Caveolin-1, endogenous (human (endogenous in H1703, H358, 293T)) (UniProt Q03135). Described as above.
Assay [5] deals with T1, Phospholipase C delta 1 (PLCD1), endogenous (human (endogenous in H1703, H358, 293T)). Description: co-IP; endogenous PLCD1, DLC1 and Caveolin-1 in H1703 cell lysate (1X RIPA buffer); Fig. 1A.
Assay [6] shares this target. Briefly: co-IP; IP with PLCD1 or Caveolin-1 antibodies from H358 (DLC1-negative) cells transfected with empty vector or pCDNA DLC1; Fig. 2D.
Assay [7] deals with DLC1 (Deleted in liver cancer 1), endogenous (human (endogenous in H1703)) (UniProt Q96QB1). Description: co-IP; competition: PLCD1 IP (Fig. 2B) or Caveolin-1 IP (Fig. 2C) from H1703 cells transfected with GST control or GST Caveolin-1 (2B) or GST PLCD1 (2C); endogenous DLC1 blotted.
Assay [8] addresses T1, Phospholipase C delta 1 (PLCD1), endogenous (human (endogenous in H1703, H358, 293T)). Briefly: co-IP; endogenous PLCD1 immunoprecipitated from lysates of H358 cells (no DLC1 protein) overexpressing GFP or GFP-DLC1 fragments; Western blot; Fig. 1C.
Assay [9] deals with T2, GST PLCD1 600–756 (C2 domain-containing region) (UniProt P51178).
T2 sequence: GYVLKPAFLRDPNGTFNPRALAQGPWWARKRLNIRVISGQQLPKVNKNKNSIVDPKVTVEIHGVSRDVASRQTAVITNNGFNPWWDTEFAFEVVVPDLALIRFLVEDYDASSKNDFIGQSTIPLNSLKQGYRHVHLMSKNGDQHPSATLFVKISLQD
Description: pull-down; glutathione Sepharose-4B pull-down from lysates of 293T cells co-transfected with GST or GST fusions and GFP or GFP-DLC1 wild type or mutants; 4 h at 4 °C, 1X RIPA washes; GFP and GST Western blot (Fig. 1F, 5D).

Assay [10] concerns the target T3, GST PLCD1 1–140 (PH domain-containing region) (UniProt P51178).
T3 sequence: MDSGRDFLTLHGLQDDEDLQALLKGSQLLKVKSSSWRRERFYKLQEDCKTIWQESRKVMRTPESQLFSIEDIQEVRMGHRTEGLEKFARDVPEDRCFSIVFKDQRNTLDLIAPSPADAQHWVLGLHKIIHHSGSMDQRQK
The assay is described as above.

Assay [11] has as its target T1, Phospholipase C delta 1 (PLCD1), endogenous (human (endogenous in H1703, H358, 293T)). Description: co-IP; PLCD1 IP from H358 cells transfected with empty vector or a plasmid encoding DLC1 848–1091; Fig. 2E.
Assay [12] shares this target. Description: condition: only with the C2 domain of Lactadherin (GFP-LACT-C2) co-expressed in the cells; co-IP; Caveolin-1 or PLCD1 IP from 293T cells overexpressing GFP DLC1 START 848–1091 together with the C2 domain of Lactadherin (GFP-LACT-C2), which sequesters PS; Fig. 4B.
Assay [13] deals with MBP-DLC1 848–1091 (human). Briefly: pull-down; MBP or MBP-DLC1 848–1091 purified from E. coli on amylose resin, incubated 4 h at 4 °C with 293T whole cell lysates expressing GST or GST fusions; 1X RIPA washes; GST Western blot; with or without 100 μM PS added (Fig. 1D, 1G, 3D); only the target purified. On the technique in general: Immunoblotting shows a protein as a band on a membrane.

Assay [14] concerns the target MBP-DLC1 848–1091 (human). Description: pull-down; bacterially purified DLC1-START (MBP-DLC1 848–1091) with lysates of CRL-1739 cells (no endogenous Caveolin-1 or PLCD1) expressing Caveolin-1 or the C2 domain of PLCD1; with or without PS; Supplementary figure 3C; only the target purified.

No constants are given. Whether binding was seen depends on the method and setting. Binding seen in cells or lysates may run through a third protein. For part of these data: Binding can be weak; no strength is given. For part of these data: Tags and fused reporters may be left off the sequences shown.

In the case of GFP-DLC1 L930P (human), in assay [1], the binding entry was “binds”.

“GFP-DLC1 848–1091 R947C (isolated mutant START domain) (human) (domain or fragment)”: the binding result in assay [2] is “binds”.

In the case of “DLC1 (Deleted in liver cancer 1), endogenous (from UniProt Q96QB1-1)”, the binding result in assay [3], in assay [4] and in assay [5] was “binds” throughout.

For DLC1 expressed from pCDNA DLC1 (human), the binding result in assay [6] is recorded as “binds”.

For “GST-Caveolin-1 (from UniProt Q03135 1-178)”, the binding result in assay [7] was “binds”.

With “GFP-DLC1 1–600 (human) (domain or fragment)”, in assay [8], the binding entry was “binds”.

As for “GFP-DLC1 80–400 (human) (domain or fragment)”, in assay [8], the binding entry is listed as “binds”.

On to “GFP-DLC1 wild type (full-length) (human)”, for which the binding result in assay [9], in assay [10] and in assay [1] was “binds” each time.

For “GFP-DLC1 848–1091 C1036S (isolated mutant START domain) (human) (domain or fragment)”, the binding entry in assay [2] was “binds”.

Turning to GFP-DLC1 C1036S (human), the binding entry in assay [1] was “binds”.

In the case of GFP-DLC1 A1017T (human), the binding entry in [1] is reported as “binds”.

In the case of “DLC1 848–1091 expressed from pCDNA DLC1 848–1091 (human) (domain or fragment)”, in [11], the binding result is given as “binds”.

Turning to GFP-DLC1 E966K (human), in [1], the binding entry was “binds”.

Regarding GFP-DLC1 S912L (human), the binding entry in assay [1] was “binds”.

On to GFP-DLC1 R947C (human), for which, in [1], the binding result was “binds”.

For “GFP-DLC1 848–1091 (START domain-containing region) (human) (domain or fragment)”, the values for the binding entry in [12], in assay [8] and in [2] were “no binding”, “binds” and “binds”, respectively.

For the molecule “GFP-DLC1 609–848 (GAP domain) (human) (domain or fragment)”, the binding result in assay [8] is recorded as “no binding”.

Turning to GFP-DLC1 C1005F (human), the binding entry in assay [1] is “binds”.

B1: GST PLCD1 600–756 (C2 domain-containing region) (domain or fragment, UniProt P51178 600-756)
chain: T2 sequence
Turning to B1, the binding result in [13] and in assay [14] was “binds” throughout.

B2: GST PLCD1 1–140 (PH domain-containing region) (domain or fragment, UniProt P51178 1-140)
chain: T3 sequence
As to B2, the binding result in assay [13] is on record as “binds”.

B3: GST PLCD1 450–600 (domain or fragment, UniProt P51178 450-600)
chain: GEGGPEATVVSDEDEAAEMEDEAVRSRVQHKPKEDKLRLAQELSDMVIYCKSVHFGGFSSPGTPGQAFYEMASFSENRALRLLQESGNGFVRHNVGHLSRIYPAGWRTDSSNYSPVEMWNGGCQIVALNFQTPGPEMDVYQGRFQDNGACG
Take B3: the binding result in assay [13] is given as “binds”.

B4: GST PLCD1 (1–756) (protein, UniProt P51178 1-756)
chain: T1 sequence
As to B4, the binding result in assay [7] and in [13] was “binds” each time.

The record behind these values is paper PMC8561924.
